The list shows a part of the results.
Legend:
Test in all cases: log2 fold change, soluble protein after heating vs DMSO (PISA); higher = thermal stabilisation; K562 cells, 10 uM, 30 min; active = over 0.2 and 3.5 SD of the protein, either way, in both replicates (recomputed)
gandotinib = compound: Cc1cc(Nc2cc(CN3CCOCC3)c3nc(C)c(Cc4ccc(Cl)cc4F)n3n2)n[nH]1 [gandotinib]
Outline: (§1)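 K562 cells at 2×10^6 cells/mL were treated for 30 min with 10 μM compound, and aliquots were heated for 3 min over 48°C-58°C before pooling. Extraction used PBS with 0.5% NP-40 at 4°C, and soluble protein was the supernatant after 21,000xg for 90 min, measured by TMTpro 16plex LC-MS/MS with channel sums equalised. Thermal stability values, relative to control samples and from duplicates, are log2 fold changes.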

Chains of the proteins cited; added tags and fusions are not shown. Lines headed by an entry give the natural chain unless they say otherwise; changes in a name come on top.
UniProt Q68D10: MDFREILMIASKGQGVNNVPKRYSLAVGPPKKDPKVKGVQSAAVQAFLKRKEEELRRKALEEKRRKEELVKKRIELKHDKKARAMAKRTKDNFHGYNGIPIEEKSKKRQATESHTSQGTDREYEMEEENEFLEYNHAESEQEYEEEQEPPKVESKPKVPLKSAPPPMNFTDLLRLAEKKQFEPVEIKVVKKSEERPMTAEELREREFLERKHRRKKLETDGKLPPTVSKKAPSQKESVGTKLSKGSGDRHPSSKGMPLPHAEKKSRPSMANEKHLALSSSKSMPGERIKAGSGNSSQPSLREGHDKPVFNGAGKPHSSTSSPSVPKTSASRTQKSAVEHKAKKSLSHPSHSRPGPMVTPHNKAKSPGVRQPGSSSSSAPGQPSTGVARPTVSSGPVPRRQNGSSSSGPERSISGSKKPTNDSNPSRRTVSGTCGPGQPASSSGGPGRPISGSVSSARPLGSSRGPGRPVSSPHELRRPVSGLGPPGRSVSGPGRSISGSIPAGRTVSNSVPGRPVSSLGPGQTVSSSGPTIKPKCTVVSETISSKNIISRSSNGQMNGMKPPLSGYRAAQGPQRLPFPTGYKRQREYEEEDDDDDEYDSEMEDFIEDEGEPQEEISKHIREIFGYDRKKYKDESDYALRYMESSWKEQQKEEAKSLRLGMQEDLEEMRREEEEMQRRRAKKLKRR
UniProt P22528: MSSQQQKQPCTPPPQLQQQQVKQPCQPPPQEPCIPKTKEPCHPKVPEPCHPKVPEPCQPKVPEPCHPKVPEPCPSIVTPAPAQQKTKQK
UniProt O76061, whole entry, looked up: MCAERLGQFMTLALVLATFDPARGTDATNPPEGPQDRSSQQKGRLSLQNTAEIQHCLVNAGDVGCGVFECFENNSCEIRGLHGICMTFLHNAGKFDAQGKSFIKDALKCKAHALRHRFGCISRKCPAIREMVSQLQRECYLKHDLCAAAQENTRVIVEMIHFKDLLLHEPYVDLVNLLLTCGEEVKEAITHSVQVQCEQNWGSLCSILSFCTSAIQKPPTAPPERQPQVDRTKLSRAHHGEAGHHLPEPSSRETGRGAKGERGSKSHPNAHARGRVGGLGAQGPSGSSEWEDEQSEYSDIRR
UniProt P81877: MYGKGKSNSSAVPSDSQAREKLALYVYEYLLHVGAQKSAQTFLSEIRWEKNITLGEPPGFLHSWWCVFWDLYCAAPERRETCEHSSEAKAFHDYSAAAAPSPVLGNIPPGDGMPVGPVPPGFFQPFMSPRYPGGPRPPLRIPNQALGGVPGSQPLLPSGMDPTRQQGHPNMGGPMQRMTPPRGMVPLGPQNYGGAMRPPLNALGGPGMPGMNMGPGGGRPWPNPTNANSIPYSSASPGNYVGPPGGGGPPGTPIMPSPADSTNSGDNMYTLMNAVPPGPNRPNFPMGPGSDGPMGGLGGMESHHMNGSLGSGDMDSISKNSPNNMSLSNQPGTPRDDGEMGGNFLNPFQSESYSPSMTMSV
UniProt Q56A73: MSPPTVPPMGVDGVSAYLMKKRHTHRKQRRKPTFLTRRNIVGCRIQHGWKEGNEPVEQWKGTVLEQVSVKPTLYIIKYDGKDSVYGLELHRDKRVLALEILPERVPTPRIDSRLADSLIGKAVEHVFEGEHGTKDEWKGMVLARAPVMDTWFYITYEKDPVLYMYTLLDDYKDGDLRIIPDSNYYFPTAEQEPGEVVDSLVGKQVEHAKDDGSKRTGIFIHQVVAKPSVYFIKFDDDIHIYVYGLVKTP
UniProt Q9H8P0: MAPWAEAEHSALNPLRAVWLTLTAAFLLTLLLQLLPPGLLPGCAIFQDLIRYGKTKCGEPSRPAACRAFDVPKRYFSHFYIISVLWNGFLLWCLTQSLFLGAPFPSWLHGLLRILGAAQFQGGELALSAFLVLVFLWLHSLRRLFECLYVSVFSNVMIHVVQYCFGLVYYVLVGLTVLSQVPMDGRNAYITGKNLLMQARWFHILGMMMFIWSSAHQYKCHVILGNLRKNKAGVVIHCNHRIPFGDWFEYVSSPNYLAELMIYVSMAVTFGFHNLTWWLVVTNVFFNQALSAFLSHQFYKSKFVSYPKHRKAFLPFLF
UniProt Q9NRA0: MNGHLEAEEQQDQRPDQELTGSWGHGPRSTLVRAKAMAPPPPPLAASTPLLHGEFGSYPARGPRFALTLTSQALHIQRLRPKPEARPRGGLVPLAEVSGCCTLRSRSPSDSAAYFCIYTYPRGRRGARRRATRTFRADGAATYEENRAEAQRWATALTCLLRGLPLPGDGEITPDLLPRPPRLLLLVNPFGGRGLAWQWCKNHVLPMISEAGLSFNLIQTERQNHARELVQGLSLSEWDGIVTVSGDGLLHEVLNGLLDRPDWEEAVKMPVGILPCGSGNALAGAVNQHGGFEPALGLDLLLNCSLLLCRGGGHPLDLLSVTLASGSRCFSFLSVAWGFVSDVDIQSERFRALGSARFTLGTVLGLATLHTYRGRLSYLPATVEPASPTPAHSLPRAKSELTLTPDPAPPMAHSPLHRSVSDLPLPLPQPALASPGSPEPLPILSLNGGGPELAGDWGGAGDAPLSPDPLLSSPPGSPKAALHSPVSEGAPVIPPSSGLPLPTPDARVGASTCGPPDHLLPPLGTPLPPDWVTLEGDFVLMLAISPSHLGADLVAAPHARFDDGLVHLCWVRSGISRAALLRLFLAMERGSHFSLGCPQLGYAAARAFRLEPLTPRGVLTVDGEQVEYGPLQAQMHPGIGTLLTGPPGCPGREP
UniProt Q7Z699: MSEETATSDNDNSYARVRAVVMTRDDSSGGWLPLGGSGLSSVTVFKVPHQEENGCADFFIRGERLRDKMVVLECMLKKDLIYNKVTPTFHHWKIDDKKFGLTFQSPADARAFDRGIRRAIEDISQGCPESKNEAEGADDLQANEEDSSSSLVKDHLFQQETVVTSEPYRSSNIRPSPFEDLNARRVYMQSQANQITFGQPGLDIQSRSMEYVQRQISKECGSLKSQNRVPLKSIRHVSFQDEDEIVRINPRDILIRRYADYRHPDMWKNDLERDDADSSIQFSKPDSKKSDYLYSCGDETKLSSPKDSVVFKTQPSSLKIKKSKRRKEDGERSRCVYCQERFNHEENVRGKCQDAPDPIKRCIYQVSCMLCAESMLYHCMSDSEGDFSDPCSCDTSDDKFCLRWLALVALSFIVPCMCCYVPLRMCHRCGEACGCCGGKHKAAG
UniProt O75716, whole entry, looked up: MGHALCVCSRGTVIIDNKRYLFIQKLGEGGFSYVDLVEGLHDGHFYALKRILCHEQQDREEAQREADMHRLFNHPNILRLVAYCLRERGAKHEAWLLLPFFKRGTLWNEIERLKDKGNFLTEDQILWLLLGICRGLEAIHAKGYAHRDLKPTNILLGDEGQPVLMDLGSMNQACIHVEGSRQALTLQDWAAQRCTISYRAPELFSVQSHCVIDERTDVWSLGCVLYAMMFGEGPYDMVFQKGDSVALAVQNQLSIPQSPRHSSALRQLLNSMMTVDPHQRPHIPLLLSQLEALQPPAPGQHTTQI
UniProt P43308: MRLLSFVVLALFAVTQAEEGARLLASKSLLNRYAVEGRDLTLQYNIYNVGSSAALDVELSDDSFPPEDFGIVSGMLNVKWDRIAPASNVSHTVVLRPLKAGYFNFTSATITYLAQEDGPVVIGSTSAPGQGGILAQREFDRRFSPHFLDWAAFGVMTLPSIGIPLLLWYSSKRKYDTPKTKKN
UniProt Q86XZ4: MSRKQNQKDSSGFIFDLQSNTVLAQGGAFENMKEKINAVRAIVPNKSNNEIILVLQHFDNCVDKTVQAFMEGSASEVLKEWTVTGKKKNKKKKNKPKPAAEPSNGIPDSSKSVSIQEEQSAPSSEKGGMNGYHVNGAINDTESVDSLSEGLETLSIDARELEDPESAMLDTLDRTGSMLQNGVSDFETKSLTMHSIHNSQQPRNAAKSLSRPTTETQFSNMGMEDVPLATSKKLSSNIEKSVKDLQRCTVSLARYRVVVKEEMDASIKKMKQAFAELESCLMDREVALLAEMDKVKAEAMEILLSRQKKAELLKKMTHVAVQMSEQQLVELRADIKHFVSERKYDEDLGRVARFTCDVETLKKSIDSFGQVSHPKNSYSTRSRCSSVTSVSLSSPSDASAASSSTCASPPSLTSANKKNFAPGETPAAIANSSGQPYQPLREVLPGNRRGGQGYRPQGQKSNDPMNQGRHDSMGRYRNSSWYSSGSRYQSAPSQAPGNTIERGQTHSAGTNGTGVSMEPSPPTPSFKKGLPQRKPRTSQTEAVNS
UniProt P35325: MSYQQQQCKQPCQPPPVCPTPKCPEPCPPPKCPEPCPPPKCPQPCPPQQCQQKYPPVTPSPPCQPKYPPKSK
UniProt Q9Y365: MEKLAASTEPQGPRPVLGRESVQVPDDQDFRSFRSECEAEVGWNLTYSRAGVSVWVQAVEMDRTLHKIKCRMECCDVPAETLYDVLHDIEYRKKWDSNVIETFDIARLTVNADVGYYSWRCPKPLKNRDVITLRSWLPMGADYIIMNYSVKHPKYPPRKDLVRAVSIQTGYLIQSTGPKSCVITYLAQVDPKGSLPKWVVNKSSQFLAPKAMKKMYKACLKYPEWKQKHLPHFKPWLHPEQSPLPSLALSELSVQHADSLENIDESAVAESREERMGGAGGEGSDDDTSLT
UniProt Q9NUQ6: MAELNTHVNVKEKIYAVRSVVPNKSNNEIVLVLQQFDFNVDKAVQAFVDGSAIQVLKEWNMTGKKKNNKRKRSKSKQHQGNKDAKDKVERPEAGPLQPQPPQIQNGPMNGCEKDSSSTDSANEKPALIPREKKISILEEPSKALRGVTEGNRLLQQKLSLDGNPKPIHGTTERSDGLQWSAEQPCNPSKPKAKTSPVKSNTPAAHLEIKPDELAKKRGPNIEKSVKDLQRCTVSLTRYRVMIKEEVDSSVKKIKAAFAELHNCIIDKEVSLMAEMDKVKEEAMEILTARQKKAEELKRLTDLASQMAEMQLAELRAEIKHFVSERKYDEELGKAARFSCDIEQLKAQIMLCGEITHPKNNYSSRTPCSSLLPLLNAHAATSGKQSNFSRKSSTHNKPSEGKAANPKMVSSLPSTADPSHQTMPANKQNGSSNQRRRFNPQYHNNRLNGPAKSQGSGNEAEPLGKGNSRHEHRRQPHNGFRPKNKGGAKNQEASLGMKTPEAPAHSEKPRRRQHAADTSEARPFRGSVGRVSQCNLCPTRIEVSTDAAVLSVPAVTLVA
UniProt P49675, whole entry, looked up: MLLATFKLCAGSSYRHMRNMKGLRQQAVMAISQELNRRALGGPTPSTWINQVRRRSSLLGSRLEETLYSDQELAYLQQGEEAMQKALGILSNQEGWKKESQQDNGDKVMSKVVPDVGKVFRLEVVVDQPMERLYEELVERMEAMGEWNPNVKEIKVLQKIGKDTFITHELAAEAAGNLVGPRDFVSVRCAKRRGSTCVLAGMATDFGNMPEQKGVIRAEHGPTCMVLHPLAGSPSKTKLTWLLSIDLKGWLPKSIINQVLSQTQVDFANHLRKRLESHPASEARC
UniProt O94768: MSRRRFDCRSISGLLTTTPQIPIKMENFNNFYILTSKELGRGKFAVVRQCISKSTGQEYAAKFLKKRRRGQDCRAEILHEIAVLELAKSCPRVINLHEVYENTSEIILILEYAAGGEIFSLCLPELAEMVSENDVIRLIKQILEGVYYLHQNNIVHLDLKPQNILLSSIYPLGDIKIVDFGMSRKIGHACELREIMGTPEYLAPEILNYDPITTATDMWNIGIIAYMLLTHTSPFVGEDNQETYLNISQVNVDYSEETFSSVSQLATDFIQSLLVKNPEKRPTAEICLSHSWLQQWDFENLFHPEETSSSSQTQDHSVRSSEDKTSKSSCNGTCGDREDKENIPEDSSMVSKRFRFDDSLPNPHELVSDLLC
UniProt Q7Z698: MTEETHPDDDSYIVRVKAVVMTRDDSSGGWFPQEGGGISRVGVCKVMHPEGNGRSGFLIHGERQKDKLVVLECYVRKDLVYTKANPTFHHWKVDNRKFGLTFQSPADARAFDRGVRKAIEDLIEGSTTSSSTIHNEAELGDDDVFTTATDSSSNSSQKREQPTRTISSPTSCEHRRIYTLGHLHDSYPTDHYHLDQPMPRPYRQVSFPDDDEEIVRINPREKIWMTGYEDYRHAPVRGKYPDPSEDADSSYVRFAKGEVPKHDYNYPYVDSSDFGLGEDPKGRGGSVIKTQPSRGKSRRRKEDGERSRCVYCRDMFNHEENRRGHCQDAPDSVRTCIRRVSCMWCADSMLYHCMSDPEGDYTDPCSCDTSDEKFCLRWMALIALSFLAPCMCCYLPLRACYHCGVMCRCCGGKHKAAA
UniProt Q9Y6N5: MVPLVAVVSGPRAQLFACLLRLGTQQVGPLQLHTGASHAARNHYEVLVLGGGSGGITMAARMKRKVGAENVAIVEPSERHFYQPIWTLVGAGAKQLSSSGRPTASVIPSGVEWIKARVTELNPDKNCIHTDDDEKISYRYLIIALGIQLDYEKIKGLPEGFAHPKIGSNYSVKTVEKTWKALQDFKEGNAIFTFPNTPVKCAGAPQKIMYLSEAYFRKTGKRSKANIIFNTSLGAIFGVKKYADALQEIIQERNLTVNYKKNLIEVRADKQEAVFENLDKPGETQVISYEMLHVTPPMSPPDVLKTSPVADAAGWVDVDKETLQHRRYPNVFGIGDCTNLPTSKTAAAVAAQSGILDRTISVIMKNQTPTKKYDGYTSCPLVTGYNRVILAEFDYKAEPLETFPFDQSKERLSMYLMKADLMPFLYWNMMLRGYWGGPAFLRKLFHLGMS

[1] = compound: Cc1cccc(CC(=O)N2CCc3c2ccc(-c2cn(C)c4ncnc(N)c24)c3F)n1
Outline: as §1

[2] = compound: C[C@@H]1COCCN1C2=NC(=NC(=C2)C3(CC3)S(=O)(=O)C)C4=C5C=CNC5=CC=C4
Outline: as §1

mubritinib = compound: FC(F)(F)c1ccc(/C=C/c2nc(COc3ccc(CCCCn4ccnn4)cc3)co2)cc1 [mubritinib]
Outline: as §1

ispinesib = compound: Cc1ccc(C(=O)N(CCCN)[C@@H](c2nc3cc(Cl)ccc3c(=O)n2Cc2ccccc2)C(C)C)cc1 [ispinesib]
Outline: as §1

bafetinib = compound: Cc1ccc(NC(=O)c2ccc(CN3CC[C@H](N(C)C)C3)c(C(F)(F)F)c2)cc1Nc1nccc(-c2cncnc2)n1 [bafetinib]
Outline: as §1

nilotinib = compound: Cc1cn(-c2cc(NC(=O)c3ccc(C)c(Nc4nccc(-c5cccnc5)n4)c3)cc(C(F)(F)F)c2)cn1 [nilotinib]
Outline: as §1

[3] = compound: Cc1nc(Nc2n[nH]c3c2CN(C(=O)N[C@H](CN(C)C)c2ccccc2)C3(C)C)c2sccc2n1
Outline: as §1

[4] = compound: Cc1ncc(-c2ccnc(Nc3ccc(S(C)(=O)=O)cc3)n2)n1C(C)C
Outline: as §1

[5] = compound: Cn1cc(-c2ccc3nnc(C(F)(F)c4ccc5ncccc5c4)n3n2)cn1
Outline: as §1

tipifarnib = compound: Cn1cncc1[C@@](N)(c1ccc(Cl)cc1)c1ccc2c(c1)c(-c1cccc(Cl)c1)cc(=O)n2C [tipifarnib]
Outline: as §1

tozasertib = compound: Cc1cc(Nc2cc(N3CCN(C)CC3)nc(Sc3ccc(NC(=O)C4CC4)cc3)n2)n[nH]1 [tozasertib]
Outline: as §1

[6] = compound: C[C@H](C1=CC=C(C=C1)C(=O)NC2=C3C=CNC3=NC=C2)N
Outline: as §1

[7] = compound: Cn1cc(-c2ccc3c(c2)CCN3C(=O)Cc2cccc(C(F)(F)F)c2)c2c(N)ncnc21
Outline: as §1

crizotinib = compound: C[C@@H](Oc1cc(-c2cnn(C3CCNCC3)c2)cnc1N)c1c(Cl)ccc(F)c1Cl [crizotinib]
Outline: as §1

doramapimod = compound: Cc1ccc(-n2nc(C(C)(C)C)cc2NC(=O)Nc2ccc(OCCN3CCOCC3)c3ccccc23)cc1 [doramapimod]
Outline: as §1

[8] = compound: CS(=O)(=O)c1ccc(-c2cnc(N)c(C(=O)Nc3ccccc3)n2)cc1
Outline: as §1

[9] = compound: Cc1cc(SCc2sc(-c3ccc(C(F)(F)F)cc3)nc2C)ccc1OCC(=O)O
Outline: as §1

dasatinib = compound: Cc1nc(Nc2ncc(C(=O)Nc3c(C)cccc3Cl)s2)cc(N2CCN(CCO)CC2)n1 [dasatinib]
Outline: as §1

duvelisib = compound: C[C@H](Nc1ncnc2nc[nH]c12)c1cc2cccc(Cl)c2c(=O)n1-c1ccccc1 [duvelisib]
Outline: as §1

Measured: log2 fold change

STIP1 (UniProt H0YGI8)
inactive: gandotinib -0.037 | [1] -0.127

SPTY2D1 (UniProt Q68D10)
inactive: [2] -0.269

SPRR1B (UniProt P22528)
inactive: mubritinib -0.422

STC2 (UniProt O76061)
inactive: gandotinib 0.119 | ispinesib 0.222 | bafetinib 0.165 | [1] -0.044 | nilotinib 0.171 | [3] -0.224 | [4] 0.082 | [5] 0.129 | tipifarnib 0.292

STIM2 isoform 2 (UniProt Q9P246)
inactive: [2] 0.01 | tozasertib 0.069 | nilotinib -0.065 | [3] 0.042 | [4] -0.077 | tipifarnib 0.162

SSBP2 (UniProt P81877)
inactive: [2] 0.136 | [6] -0.289 | gandotinib -0.029 | ispinesib 0.062 | bafetinib -0.005 | [1] -0.085 | [7] 0.014 | [5] -0.007 | tipifarnib -0.166 | mubritinib -0.018

SPIN4 (UniProt Q56A73)
inactive: crizotinib 0.108 | doramapimod -0.213

SRD5A3 (UniProt Q9H8P0)
inactive: crizotinib -0.203 | gandotinib 0.322 | doramapimod -0.254 | ispinesib -0.537 | bafetinib -0.304 | [1] 0.198 | nilotinib -0.142 | [3] -0.106 | [4] 0.063 | [5] 0.108 | mubritinib 0.171

SPHK2 isoform 5 (UniProt Q9NRA0)
inactive: [8] 0.122 | tipifarnib -0.015

SRCIN1 (UniProt Q9C0H9)
inactive: gandotinib 0 | ispinesib -0.204 | bafetinib 0.251 | [1] -0.087 | [5] -0.149

SSB (UniProt E7ERC4)
inactive: gandotinib -0.352 | [9] 0.337 | [1] -0.025 | dasatinib -0.528 | mubritinib -0.063

ST3GAL1 (UniProt Q11201)
inactive: [2] 0.16 | [6] 0.131 | duvelisib -0.011 | [9] 0.078 | dasatinib -0.018 | [7] -0.224 | tipifarnib 0.105

STAB1 (UniProt Q9NY15)
inactive: crizotinib -0.016 | [2] 0.114 | [6] -0.239 | duvelisib 0.045 | gandotinib -0.269 | [9] -0.195 | doramapimod 0.061 | ispinesib -0.181 | bafetinib 0.181 | [1] 0.188 | dasatinib -0.164 | [7] -0.192 | [5] 0.088 | tipifarnib 0.131 | mubritinib -0.145

SPRED1 (UniProt Q7Z699)
inactive: [2] -0.224 | [6] 0.005 | ispinesib 0.199 | [7] -0.028 | [5] 0.052

SPIRE1 (UniProt Q08AE8)
inactive: crizotinib -0.105 | [2] -0.324 | [6] 0.087 | gandotinib 0.344 | doramapimod 0.096 | ispinesib -0.073 | bafetinib -0.06 | [1] -0.194 | nilotinib 0.007 | [3] 0.063 | [4] -0.046 | [7] -0.155 | [5] -0.026 | mubritinib 0.098

STK16 (UniProt O75716)
inactive: crizotinib -0.017 | [2] 0.108 | doramapimod -0.092

SSBP4 (UniProt U3KPY3)
inactive: mubritinib 0.046

SS18 (UniProt Q15532)
inactive: [6] -0.191 | duvelisib 0.232 | gandotinib -0.123 | tozasertib -0.194 | [9] 0.051 | ispinesib 0.386 | bafetinib 0.079 | [1] -0.153 | nilotinib 0.149 | [3] 0 | dasatinib 0.091 | [4] -0.141 | [7] 0.146 | [5] 0.396 | tipifarnib 0.108 | mubritinib 0.006

SSR2 (UniProt P43308)
inactive: nilotinib 0.141 | [3] -0.999 | [4] -0.009 | mubritinib -0.1

SREBF1 isoform 4 (UniProt P36956)
inactive: crizotinib 0.106 | [2] 0.084 | [9] 0.089 | doramapimod 0.098 | bafetinib -0.357 | dasatinib -0.043 | mubritinib -0.004

SPICE1 (UniProt Q8N0Z3)
inactive: gandotinib 0.137 | bafetinib -1.12 | [1] -0.624 | nilotinib -0.031 | [3] 0.051 | [4] 0.067

ST3GAL4 isoform 4 (UniProt Q11206)
inactive: [8] -0.037 | [2] 0.005 | [6] -0.053 | tozasertib -0.007 | bafetinib 0.081 | nilotinib 0.094 | [3] 0.038 | [4] 0.116 | [7] -0.282

SSX1 (UniProt Q16384)
inactive: [2] -0.13 | [6] 0.122 | bafetinib 0.079 | [7] -0.219 | tipifarnib 0.034

SPATS2 (UniProt Q86XZ4)
inactive: [6] 0.207 | duvelisib -0.062 | gandotinib 0.255 | [9] 0.166 | [1] -0.167 | dasatinib -0.082 | [7] -0.106

2 consecutive records already listed, quoted:
SSX1 (UniProt Q16384)
inactive: [2] -0.13 | [6] 0.122 | bafetinib 0.079 | [7] -0.219 | tipifarnib 0.034

SPATS2 (UniProt Q86XZ4)
inactive: [6] 0.207 | duvelisib -0.062 | gandotinib 0.255 | [9] 0.166 | [1] -0.167 | dasatinib -0.082 | [7] -0.106

(next part)

SPPL3 (UniProt Q8TCT6)
inactive: mubritinib 0.083

SS18L1 (UniProt O75177)
inactive: tipifarnib -0.008

SPRR2B (UniProt P35325)
inactive: [2] 0.059 | bafetinib -0.303 | nilotinib 0.148 | [3] 0.126 | [4] -0.078 | mubritinib -0.002

SPATA33 isoform 2 (UniProt Q96N06)
inactive: [8] -0.058 | [6] -0.037 | duvelisib 0.078 | gandotinib 0.002 | tozasertib -0.039 | [9] 0.038 | ispinesib 0.124 | bafetinib 0.059 | [1] -0.029 | nilotinib -0.065 | [3] -0.279 | dasatinib -0.003 | [4] -0.004 | [7] 0.035 | [5] 0.093 | tipifarnib -0.074

STARD10 (UniProt Q9Y365)
inactive: [8] -0.052 | [2] -0.131 | duvelisib 0.088 | [9] 0.127 | dasatinib -0.261

SPATS2L isoform 3 (UniProt Q9NUQ6)
inactive: [8] 0.033 | [2] -0.741 | [6] 0.555 | duvelisib -0.254 | [9] -0.141 | dasatinib 0.085 | [7] -0.259

STAR (UniProt P49675)
inactive: ispinesib -0.127 | [5] 0.011 | mubritinib -0.105

SRBD1 (UniProt Q8N5C6)
inactive: [2] 0.233 | gandotinib 0.146 | [1] -0.104

SPEN (UniProt Q96T58)
inactive: [2] 0.01 | [6] 0.037 | duvelisib 0.007 | gandotinib 0.049 | tozasertib -0.114 | [9] -0.199 | ispinesib -0.065 | bafetinib -0.055 | [1] -0.004 | nilotinib -0.022 | [3] -0.137 | dasatinib 0.009 | [4] -0.036 | [7] 0.12 | [5] 0.012 | tipifarnib 0.06 | mubritinib -0.043

SPP2 (UniProt Q13103)
inactive: [8] -0.083 | [2] -0.023 | [6] -0.004 | duvelisib -0.04 | tozasertib 0.018 | [9] -0.303 | bafetinib -0.118 | dasatinib 0.126 | [7] 0.014

STK17B (UniProt O94768)
inactive: crizotinib -0.227 | doramapimod -0.085 | bafetinib 0.024

SRGAP1 (UniProt Q7Z6B7)
inactive: crizotinib -0.081 | [2] -0.129 | gandotinib -0.002 | tozasertib -0.184 | doramapimod 0.029 | ispinesib 0.001 | bafetinib -0.019 | [1] 0.043 | nilotinib -0.1 | [3] -0.023 | [4] 0.02 | [5] -0.073 | tipifarnib 0.128 | mubritinib -0.252

SPDL1 (UniProt Q96EA4)
inactive: [8] -0.113 | [6] 0.3 | duvelisib -0.075 | tozasertib 0.015 | [9] 0.062 | ispinesib -0.255 | dasatinib -0.129 | [7] 0.075 | [5] 0.131 | tipifarnib 0.233

SPRED2 (UniProt Q7Z698)
inactive: [6] 0.1 | [7] 0.034

SQOR (UniProt Q9Y6N5)
inactive: [8] 0.053 | [2] -0.184 | duvelisib 0.101 | gandotinib -0.084 | [9] -0.155 | [1] 0.03 | dasatinib -0.008

Source: the supplement of paper PMC10849652
